Laboratory results taken from patent US10988533B2, “Anti-pre-BCR antagonists and methods” (STC.UNM, priority 2015, dated 2021).
At least one compound was matched to its structure with a doubt left.

How the values were obtained:
[1] = test system: BCL6 expression in 697 cells; assay: Western blotting of BCL6 expression in 697 cells; type: cell-based, human; details: overnight (24 hours) treatment
Procedure: (§1) Results in FIG. 8 evaluate the ability of anti-VpreB Fabs, as well as inhibitors directed at pre-BCR downstream signaling partners Lyn, Syk and SHIP1 (INPP5D), to block tonic signaling from the pre-BCR.
(§2) After stated incubation +/− inhibitors or crosslinking agents, cells were washed with ice-cold PBS and held for 15 minutes on ice in Tris-based lysis buffer, with 1% NP-40 and protease and phosphatase inhibitors (ThermoFisher Scientific, Waltham, Mass.). For effects of inhibitors on BCL6 expression, treatments were carried out for 24 hours. Lysates were clarified by centrifugation at 14,000×g for 10 minutes at 4° C., then added to Laemmli's Reducing buffer. Proteins were separated on SDS-polyacrylamide and transferred to nitrocellulose membranes. After blocking with TBST (Sigma-Aldrich, St. Louis, Mo.) with 5% BSA (Sigma-Aldrich, St. Louis, Mo.), blots were probed with antibodies specific to pCD79a (Tyr 182) (Cell Signaling Technology, Inc., Danvers, Mass.), pSyk (Tyr348) (Novus Biologicals LLC, Littleton, Colo.), pSyk (Tyr 352) (Cell Signaling Technology, Inc., Danvers, Mass.) or BCL6 (Santa Cruz Biotechnology, Inc., Dallas, Tex.). Antibodies to β-Actin (Sigma-Aldrich, St. Louis, Mo.) were used as loading controls.

pre-BCR on 697 cells = molecular target: T1, pre-BCR on 697 cells (Homo sapiens, UniProt P12018); assay: Single Particle Tracking of pre-BCR diffusion on 697 cells; type: cell-based; details: relative to tonic signaling, Fab 1 μM, galectin-1 10 μM, inhibitors 1 μM
T1 construct: endogenous in cells; host or cells: 697 (BCP-ALL cell line)
T1 sequence (P12018 20-145): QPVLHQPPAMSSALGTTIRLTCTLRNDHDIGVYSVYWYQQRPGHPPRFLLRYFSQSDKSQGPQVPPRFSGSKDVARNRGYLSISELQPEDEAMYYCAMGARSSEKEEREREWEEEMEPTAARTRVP
Procedure: Data are reported as changed in ensemble diffusion coefficients (MSD) for pre-BCR plus and minus saturating levels of anti-VpreB1 Fabs (1 μM). In these experiments, Fabs were added to 697 cells for 15 minutes at 37° C. prior to performing Single Particle Tracking (SPT).
Suspension cultures of BCP-ALL cell lines (697, Nalm6) were grown in RPMI 1640 with phenol red (Sigma-Aldrich, St. Louis, Mo.), with 10% (v/v) HI FBS, 1% Penicillin/Streptomycin (Gibco, Gaithersburg, Md.), and L-Glutamine 2 mM. Patient samples were cultured in IMDM, GlutaMAX medium (Gibco, Gaithersburg, Md.) supplemented with 20% (v/v) HI FBS, 1% penicillin/streptomycin, 1× insulin, transferrin and selenium (Gibco, Gaithersburg, Md.), 1 mM sodium pyruvate (Gibco, Gaithersburg, Md.), and 55 μM 2-Mercaptoethanol (Gibco, Gaithersburg, Md.). Prior to experiments, cells were washed twice with Tyrode's solution (Sigma-Aldrich, St. Louis, Mo.). Unless otherwise stated, cells were pretreated for 10 minutes with Bay-61-3606 (Santa Cruz Biotechnology, Inc., Dallas, Tex.; 1 μM), dasatinib (Santa Cruz Biotechnology, Inc., Dallas, Tex.; 1 μM), tofacitinib (Selleck Chemicals LLC, Houston, Tex.; 1 μM), anti-VpreB Fab (1 μM), 3AC (Echelon Biosciences, Inc., Salt Lake City, Utah), and/or recombinant galectin-1 (PreproTech, Inc., Rocky Hill, N.J.; 10 μM), +/− lactose. […]

[2] = molecular target: T2, pre-BCR on patient #280 cells (Homo sapiens, UniProt P12018); assay: Single Particle Tracking of pre-BCR diffusion on patient #280 cells; type: cell-based; details: anti-VpreB Fabs 5 μM
T2 construct: endogenous in cells; host or cells: primary BCP-ALL blasts of patient #280 (cryopreserved, then cultured or passaged through NSG mice)
T2 sequence (P12018 20-145): T1 sequence (P12018 20-145)

697 cells = assay: flow cytometry apoptosis assay (Annexin-V / 7-AAD), 697 cells; type: cell-based, human; details: inhibitor in combination with vincristine
Procedure: Since blocking pre-BCR pro-survival signaling may be advantageous for chemo-sensitization, one can compare apoptosis alone or in combination with a sub-lethal dose of a chemotherapeutic such as, for example, vincristine or daunorubicin.
Curves were fit using sigmoidal dose-response curve using MATLAB curve fitting toolbox (The MathWorks, Inc., Natick, Mass.).
Leukemia cell apoptosis was measured based upon binding to Annexin-V-FITC (BioLegend, Inc., San Diego, Calif.) and loss of cell viability measured by 7-AAD labeling (BioLegend, Inc., San Diego, Calif.), according to manufacturer's procedures. For receptor-binding experiments, cells were incubated under saturating conditions for 1.5 hours on ice in PBS with anti-CD79b-APC antibody (BioLegend, Inc., San Diego, Calif.) or anti-VpreB-PE antibody (BioLegend, Inc., San Diego, Calif.). […] (Bangs Laboratories, Inc., Fishers, Ind.) beads with anti-mouse Fc antibody according to manufacturer's instruction. Dissociation constants were estimated with nonlinear regression analysis under KD controlled conditions as described (Drake, A. W., and S. L. Klakamp, 2007, J Immunol Methods 318:147-152). All flow cytometry data collection was conducted on the […] platform (IntelliCyt Corp., Albuquerque, N. Mex.; Edwards et al., 2009, Methods Mol Biol 486:151-165) and analyzed with the FLOWJO Software Suite (FlowJo, LLC, Ashland, Oreg.).

[3] = test system: BCL6 levels in patient #280 cells; assay: Western blotting of BCL6 levels in patient #280 cells; type: cell-based, human; details: 24 hours
Procedure: FIG. 14. Data showing that pre-BCR signaling contributes to survival of some BCP-ALL blasts. Data are shown for patient #280. A) Increase in apoptosis (Annexin labeling) and loss of cell viability (7AAD labeling) after prolonged incubation with dasatinib (10 μM) alone or in combination with vincristine over doses of 0.1 ng/ml to 100 ng/ml. B) Increase in apoptosis after 24-hour incubation of #280 patient cells with α-VpreB Fab (5 μM) alone or in combination with low dose vincristine (10 ng/ml).
After stated incubation +/− inhibitors or crosslinking agents, cells were washed with ice-cold PBS and held for 15 minutes on ice in Tris-based lysis buffer, with 1% NP-40 and protease and phosphatase inhibitors (ThermoFisher Scientific, Waltham, Mass.). For effects of inhibitors on BCL6 expression, treatments were carried out for 24 hours. Lysates were clarified by centrifugation at 14,000×g for 10 minutes at 4° C., then added to Laemmli's Reducing buffer. Proteins were separated on SDS-polyacrylamide and transferred to nitrocellulose membranes. […]

[4] = test system: pre-BCR signaling in 697 cells; assay: Western blotting of pre-BCR tonic signaling (phospho-CD79a, phospho-Syk) with pervanadate; type: cell-based, human; details: in the presence of pervanadate, Fab 5 μM 30 minutes
Procedure: as §1
as §2, with “controls. […]” for “controls.”

With `Cc1nc(Nc2ncc(C(=O)Nc3c(C)cccc3Cl)s2)cc(N2CCN(CCO)CC2)n1` [dasatinib] as the compound, how does the BCL6 expression [1] read?
The BCL6 expression was “abolished”.

And the “overall diffusion (mobility) of pre-BCR” value (pre-BCR on 697 cells)?
The value was “overall increased mobility”.

And the “receptor mobility (pre-BCR diffusion)” value [2]?
Its value is “notable increase in receptor mobility”.

And the “apoptosis in cells treated with vincristine over a range of doses” value (697 cells)?
Its value is “potentiate apoptosis”.

What about the BCL6 levels [3] of the same compound?
Its BCL6 levels is “marked decline”.

And the “accumulation of phospho-CD79a (Igα ITAM, Y182)” value [4]?
Its value is “blocked”.
